Test results: the supplement of paper PMC10735217
Structures can show the parent of a compound that is named as a salt. This is one part of the list. Single values are uncertain here, since repeats match poorly.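 The human kidney-derived cells carry a stably integrated construct of eight TEAD-binding elements driving luciferase, read by luminescence in a drug-repurposing library screen. A compound counts as a hit when its signal is more than five robust Z scores above the plate mean.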

Test system: HEK293A TEAD-LUC reporter
Test: TEAD-luciferase reporter activity (YAP activation), robust Z score vs plate; higher = stronger YAP/TEAD activation
Conditions: 24 h

| Compound | TEAD-luciferase reporter activity (compound concentration: 200 nM) | TEAD-luciferase reporter activity (compound concentration: 2 uM) | TEAD-luciferase reporter activity (compound concentration: 10 uM) |
| --- | --- | --- | --- |
| CC(C)(C)NCc1ccc(Nc2ccnc3cc(Cl)ccc23)cc1O [N-tert-Butylisoquine] | inactive: -1.06 | inactive: 1.94 | inactive: -0.69 |
| CCN(C)C(=O)c1ccc2c(c1)NC(=O)/C2=C(/Nc1ccc(CN2CCCCC2)cc1)c1ccccc1 | inactive: 0.984 | inactive: -0.82 | inactive: 0.0509 |
| CC(C)N1CCN(c2ccc(N3CCN(c4ccc(OC[C@@H]5OC[C@](Cn6cncn6)(c6ccc(F)cc6F)O5)cc4)CC3)cc2)C1=O | inactive: -0.644 | inactive: -1.63 | inactive: -0.456 |
| O=C(CCCCC(=O)Nc1scc(-c2cccs2)c1C(=O)O)Nc1scc(-c2cccs2)c1C(=O)O | inactive: -1.75 | inactive: 1.25 | inactive: 2.21 |
| CC[C@H]1OC(=O)C[C@@H](O)[C@H](C)[C@@H](O[C@@H]2O[C@H](C)[C@@H](O)[C@H](N(C)C)[C@H]2O)[C@@H](CCN2CCCCC2)C[C@@H](C)C(=O)/C=C/C(C)=C/[C@@H]1CN1CCCCC1 [Tildipirosin] | inactive: -0.173 | inactive: -0.243 | inactive: -0.283 |
| CCCCC1(COC(=O)CCC(=O)O)C(=O)N(c2ccccc2)N(c2ccccc2)C1=O | inactive: -1.9 | inactive: 0.507 | inactive: 1.28 |
| COc1ccc(CCNCCC(=O)N2CCCSc3ccccc32)cc1OC | inactive: 1.23 | inactive: 1.99 | inactive: -0.2 |
| O=C(Cc1ccc(O)cc1)Nc1ccc2cnn(CCN3CCCC3)c2c1 | inactive: -1.85 | inactive: 1.01 | inactive: 0.13 |
| Nc1ncnc2c1ncn2C1CCC(O)C1 (configuration not stated) | inactive: -0.861 | inactive: -1.06 | inactive: 0.721 |
| CC[C@@]12C=C(C(=O)O)n3c4c(c5ccccc53)CCN(CCC1)[C@H]42 | inactive: -0.242 | inactive: -1.85 | inactive: 0.967 |
| Cc1cc(Nc2nc(C(O)c3ccc(F)cc3)nc3ccccc23)n[nH]1 (configuration not stated) | inactive: -1.89 | inactive: -1.81 | inactive: -1.47 |
| CN(CCC1c2ccccc2COc2ccccc21)CC(O)COc1ccccc1 (configuration not stated) | inactive: -0.673 | inactive: -0.546 | inactive: -1.52 |
| CCCc1nc2ccc(N(CCC)C(=O)c3ccccc3)cc2c(=O)n1Cc1ccc(-c2ccccc2-c2nnn[nH]2)cc1 | inactive: -1.28 | inactive: -1.16 | inactive: -0.464 |
| NS(=O)(=O)c1cc2c(cc1Cl)NCNS2(=O)=O [hydrochlorothiazide, Elan] |  | inactive: 2.68 |  |
| NS(=O)(=O)c1cc2c(cc1Cl)NCNS2(=O)=O | inactive: 3.38 |  | inactive: 0.95 |
| CC(C)(C)c1cc(N2CCCC2=O)cc(C(C)(C)C)c1O | inactive: -1.68 | inactive: -0.397 | inactive: 0.736 |
| CC[C@H](C)[C@H](NC(=O)[C@H](CCCCN)NC(=O)[C@H](CCCCN)NC(=O)[C@H](Cc1ccccc1)NC(=O)[C@H](CC(C)C)NC(=O)[C@H](CCCCN)NC(=O)[C@@H](N)CCCCN)C(=O)N[C@@H](CC(C)C)C(=O)N[C@@H](CCCCN)C(=O)N[C@@H](CCCCN)C(=O)N[C@@H](CC(C)C)C(N)=O | inactive: 0.139 | inactive: -0.722 | inactive: -0.107 |
| CC(C)c1c(O)ccc2c1CC[C@H]1C(C)(C)CCC[C@]21C | inactive: 1.98 | inactive: 0.612 | inactive: 2.99 |
| C1CN(CC2CC2)CCN1 | inactive: -1.61 | inactive: -1.16 | inactive: -1.04 |
| CC(C)Oc1ccc(-c2cc(=O)c3c(OC(C)C)cc(OC(C)C)cc3o2)cc1 | inactive: -0.526 | inactive: 0.719 | inactive: -1.5 |
| CCCCC1(CN2CCN(C)CC2)C(=O)N(c2ccccc2)N(c2ccccc2)C1=O | inactive: -0.884 | inactive: -0.61 | inactive: 2.31 |
| CSc1nn2c(C)cc(=O)[nH]c2c1S(=O)(=O)c1ccccc1 | inactive: -1.57 | inactive: 0.68 | inactive: -1.5 |
| CC(C)[C@H](N)C(=O)O [L-Valine] | inactive: -1.04 | inactive: -2.31 | inactive: -0.736 |
| O=c1c2ccccc2nc2n1OCC2 | inactive: 0.4 | inactive: 0.435 | inactive: 0.168 |
| C=C1C[C@]23C[C@@]1(O)CC[C@H]2[C@@]12C=C[C@H](O)[C@@](C)(C(=O)O1)[C@H]2[C@@H]3C(=O)O | inactive: -0.267 | inactive: -0.323 | inactive: -0.448 |
| CCCCc1ncc(/C=C(\Cc2cccs2)C(=O)O)n1Cc1ccc(C(=O)O)cc1 [eprosartan mesylate] | inactive: -0.024 | inactive: 1.8 | inactive: -1.43 |

Retrieved one by one from the list above:

| Compound | TEAD-luciferase reporter activity (compound concentration: 200 nM) | TEAD-luciferase reporter activity (compound concentration: 2 uM) | TEAD-luciferase reporter activity (compound concentration: 10 uM) |
| --- | --- | --- | --- |
| CCN(C)C(=O)c1ccc2c(c1)NC(=O)/C2=C(/Nc1ccc(CN2CCCCC2)cc1)c1ccccc1 | inactive: 0.984 | inactive: -0.82 | inactive: 0.0509 |
| CC[C@@]12C=C(C(=O)O)n3c4c(c5ccccc53)CCN(CCC1)[C@H]42 | inactive: -0.242 | inactive: -1.85 | inactive: 0.967 |

Later entries:

| Compound | TEAD-luciferase reporter activity (compound concentration: 200 nM) | TEAD-luciferase reporter activity (compound concentration: 2 uM) | TEAD-luciferase reporter activity (compound concentration: 10 uM) |
| --- | --- | --- | --- |
| CC(C)C[C@H](NC(=O)[C@@H](N)CC(N)=O)C(=O)NCC(=O)N[C@@H](CCC(=O)O)C(=O)N[C@@H](Cc1cnc[nH]1)C(=O)N1CCC[C@H]1C(=O)N[C@H](C(=O)N[C@@H](CS)C(=O)N[C@@H](CC(=O)O)C(=O)N[C@@H](CO)C(=O)O)C(C)C | inactive: 1.26 | inactive: 0.123 | inactive: 3.52 |
| CCCCCCCC[N+](CC)(CC)CCOC(=O)C(C1CCCC1)C1CCCC1 | inactive: -1.39 | inactive: 0.0628 | inactive: -1.63 |
| CC(C)NCC(O)c1ccc(NS(C)(=O)=O)cc1 (configuration not stated) | inactive: 0.669 |  | inactive: 0.726 |
| CC(C)NCC(O)c1ccc(NS(C)(=O)=O)cc1 [D-sotalol] |  | inactive: -0.122 |  |
| CCCC(=O)N1CC[C@H]2CC(=O)NCC[C@H]2C1 | inactive: -0.184 |  | inactive: 3.43 |
| C[C@H]1CNCCCN1S(=O)(=O)c1cccc2cncc(F)c12 [Ripasudil hydrochloride hydrate] | inactive: 0.119 | inactive: 4.45 | inactive: -1.28 |
| Cc1ccc2cccc(OCc3c(Cl)ccc(N(C)C(=O)CNC(=O)/C=C/c4ccc(/C=C/c5ccncc5)nc4)c3Cl)c2n1 | inactive: -1.1 | inactive: -1.18 | inactive: -0.229 |
| NCCCCCCNS(=O)(=O)c1cccc2c(Cl)cccc12 | inactive: -1.75 | inactive: 0.977 | inactive: 1.55 |
| CCCCOC(=O)c1ccc(N)cc1 [butamben] |  | inactive: -1.55 |  |
| CCCCOC(=O)c1ccc(N)cc1 [butamben, Jazz] | inactive: -0.992 |  | inactive: -1.39 |
| Cc1ccc(O[C@H]2O[C@H](CCP(=O)(OC(C)C)OC(C)C)[C@@H](O)[C@H](O)[C@@H]2O)c(C)c1 | inactive: 0.767 | inactive: 1.06 | inactive: -0.0203 |
| CC[N+](C)(CC)CCOC(=O)C1c2ccccc2Oc2ccccc21 [Methantheline] | inactive: -0.905 |  | inactive: 0.657 |
| CC[N+](C)(CC)CCOC(=O)C1c2ccccc2Oc2ccccc21 [Methantheline Bromide] |  | inactive: -1.23 |  |
| CC(C)(C)NCC(O)COc1cccc2c1CC1(CCCCC1)C2=O (configuration not stated) | inactive: -1.25 | inactive: -1.22 | inactive: 0.346 |
| CC(=O)N(O)CCC[C@@H]1NC(=O)[C@H](CCCN(O)C(C)=O)NC(=O)[C@H](CCCN(O)C(C)=O)NC(=O)[C@@H](Cc2ccccc2)NC(=O)[C@H](CC(C)C)NC(=O)[C@H](CC(N)=O)NC1=O | inactive: 0.162 | inactive: -0.55 | inactive: -0.0542 |
| O=[N+]([O-])c1ccc(C=NO)o1 [Nifuroxime] | inactive: 0.594 | inactive: 0.394 | inactive: -0.965 |
| N=C(N)Nc1ccc(C(=O)Oc2ccc3cc(C(=N)N)ccc3c2)cc1 [nafamostat mesilate, Mucokinetica] | inactive: -0.436 | inactive: -0.176 | inactive: 0.555 |
| CS(=O)(=O)c1ccccc1-c1ccc(CCNS(=O)(=O)c2cc(C(N)=NO)ccc2O)c(OCC(=O)O)c1 | inactive: -1.45 | inactive: 1.3 | inactive: 0.83 |
| Nc1nc(/C(=C/CC(=O)O)C(=O)N[C@@H]2C(=O)N3C(C(=O)O)=CCS[C@H]23)cs1 [Ceftibuten hydrate] | inactive: 0.544 |  | inactive: -0.697 |
| Nc1nc(/C(=C/CC(=O)O)C(=O)N[C@@H]2C(=O)N3C(C(=O)O)=CCS[C@H]23)cs1 [ceftibuten] |  | inactive: 1.22 |  |
| CNC(=O)c1c(-c2ccc(F)cc2)oc2cc(NS(C)(=O)=O)c(OC(C)C)cc12 | inactive: 1.3 | inactive: -1.16 | inactive: 0.667 |
| CCCCc1nc(CCCC)n(Cc2ccc(-c3ccccc3-c3nnn[nH]3)cc2)n1 | inactive: 0.278 | inactive: -1.32 | inactive: 0.763 |
| C[C@H]1O[C@@H](n2cc(-c3ccccc3)c3c(Nc4ccc(F)cc4)ncnc32)[C@H](O)[C@@H]1O | inactive: -0.0542 | inactive: -0.518 | inactive: 2.77 |
| Cc1ccc2c(n1)Oc1ccc(C(C)C(=O)OCC(=O)N(C)C)cc1C2 (configuration not stated) | inactive: -1.3 | inactive: 2.95 | active: 5.7 |
| CC[C@H]1NC(=O)[C@@H](NC(=O)c2ncccc2O)[C@@H](C)OC(=O)[C@H](c2ccccc2)NC(=O)[C@@H]2CC(=O)[C@H](CS[C@@H]3C[NH+]4CCC3CC4)CN2C(=O)[C@H](Cc2ccc(N(C)C)cc2)N(C)C(=O)[C@@H]2CCCN2C1=O [Quinupristin (mesylate)] | inactive: -0.632 | inactive: 1.81 | inactive: 0.134 |
